Experimental data: patent publication US5041436A, “1-arylsulphonyl-2-piperidinone derivatives, process and intermediates for the preparation thereof, their application as antispasmodics and compositions containing them” (Roussel Uclaf, priority 1989, dated 1991)

Tested on: cholinomimetic effects induced by carbachol
Experiment: In vivo anticholinergic action: inhibition of cholinomimetic effects induced by carbachol in mice
Set-up: species or system CD1 male mice
Settings: control mice, 1 mg/kg s.c.
Protocol: The anticholinergic activity of the compounds was determined by assessing the capacity to inhibit the cholinomimetic effects induced by carbachol. Atropine sulphate was employed as a reference product.
CD1 male mice weighing 25 to 30 g were used. They were distributed in groups of 6 animals and treated intraperitoneally with scalar doses of the products or 0.25% Methocel for the controls. 12 animals were used for each dose. 30 minutes after administration of the compounds, the mice were injected subcutaneously with 1 mg/kg of carbachol dissolved in physiological saline.
Each animal was examined 30 minutes after the injection of carbachol to assess the presence of diarrhoea, salivation and eye watering; in addition, the body temperature was measured by means of a thermocouple inserted 1.5 cm into the rectum.
For each compound, we have determined and recorded in the following table the dose capable of inhibiting the appearance of the carbachol-induced cholinometric symptoms in 50% of the animals, and of increasing by 1° C. the hypothermic effect induced by the cholinergic agent.

## C[N+](C)(C)CCOC(N)=O [Carbachol, carbachol, reference compound]
  decrease in rectal temperature induced by carbachol: approximately 2.5 °C
  diarrhoea induced by carbachol: all the control mice
  eye watering induced by carbachol: all the control mice
  salivation induced by carbachol: all the control mice
